According to the supplement of paper PMC6411743:
± gives the standard deviation of the averaged measurements. This is one part of the list.

By UniProt entry, the sequences of proteins in these tests, tags left out. Where a name states a change or a piece, a line headed by the entry shows the natural chain unless it says otherwise.
UniProt P37108: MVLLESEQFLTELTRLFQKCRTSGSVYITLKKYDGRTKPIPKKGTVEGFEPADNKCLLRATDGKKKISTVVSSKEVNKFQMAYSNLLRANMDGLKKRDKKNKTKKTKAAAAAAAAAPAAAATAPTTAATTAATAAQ
UniProt P49321, whole entry: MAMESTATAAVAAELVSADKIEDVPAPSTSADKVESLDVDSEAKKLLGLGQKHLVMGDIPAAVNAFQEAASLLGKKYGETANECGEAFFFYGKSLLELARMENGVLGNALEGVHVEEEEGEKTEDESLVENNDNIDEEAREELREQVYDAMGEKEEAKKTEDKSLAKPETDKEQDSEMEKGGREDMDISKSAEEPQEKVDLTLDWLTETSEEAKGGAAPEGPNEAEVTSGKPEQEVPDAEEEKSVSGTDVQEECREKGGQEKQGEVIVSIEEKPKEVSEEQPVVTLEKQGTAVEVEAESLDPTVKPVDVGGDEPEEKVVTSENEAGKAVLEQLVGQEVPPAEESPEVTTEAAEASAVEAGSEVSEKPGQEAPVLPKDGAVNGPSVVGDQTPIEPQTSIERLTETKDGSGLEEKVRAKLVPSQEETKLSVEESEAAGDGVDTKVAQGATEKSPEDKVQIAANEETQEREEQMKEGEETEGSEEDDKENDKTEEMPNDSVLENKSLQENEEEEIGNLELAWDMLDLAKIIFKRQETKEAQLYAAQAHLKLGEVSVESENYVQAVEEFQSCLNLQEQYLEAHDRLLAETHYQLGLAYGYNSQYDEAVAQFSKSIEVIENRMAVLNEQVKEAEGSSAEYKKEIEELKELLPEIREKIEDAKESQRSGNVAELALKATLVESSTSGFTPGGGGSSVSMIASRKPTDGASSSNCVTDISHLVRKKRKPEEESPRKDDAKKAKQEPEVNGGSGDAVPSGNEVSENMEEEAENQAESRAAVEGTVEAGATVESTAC
UniProt P46063: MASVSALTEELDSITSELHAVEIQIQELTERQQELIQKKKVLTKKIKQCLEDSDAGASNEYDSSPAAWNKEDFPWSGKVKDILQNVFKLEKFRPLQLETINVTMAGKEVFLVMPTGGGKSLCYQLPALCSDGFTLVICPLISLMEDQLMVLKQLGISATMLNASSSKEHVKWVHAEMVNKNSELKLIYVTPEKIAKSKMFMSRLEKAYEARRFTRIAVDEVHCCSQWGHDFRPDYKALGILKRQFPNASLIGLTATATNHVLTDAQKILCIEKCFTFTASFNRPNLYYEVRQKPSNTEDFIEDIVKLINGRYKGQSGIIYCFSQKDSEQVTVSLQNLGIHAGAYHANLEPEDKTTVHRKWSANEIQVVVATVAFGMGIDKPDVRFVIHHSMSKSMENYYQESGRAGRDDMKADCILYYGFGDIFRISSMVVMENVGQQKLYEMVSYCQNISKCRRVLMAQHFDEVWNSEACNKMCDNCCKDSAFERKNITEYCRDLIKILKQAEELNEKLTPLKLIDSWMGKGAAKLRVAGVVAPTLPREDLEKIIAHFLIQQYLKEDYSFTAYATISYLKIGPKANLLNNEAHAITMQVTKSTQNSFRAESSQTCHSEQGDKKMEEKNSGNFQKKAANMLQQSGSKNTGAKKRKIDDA
UniProt P30049: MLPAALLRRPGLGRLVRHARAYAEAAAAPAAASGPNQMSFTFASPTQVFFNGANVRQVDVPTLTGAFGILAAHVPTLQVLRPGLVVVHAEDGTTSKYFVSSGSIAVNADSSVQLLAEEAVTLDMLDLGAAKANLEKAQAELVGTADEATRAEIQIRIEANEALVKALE
UniProt P32942: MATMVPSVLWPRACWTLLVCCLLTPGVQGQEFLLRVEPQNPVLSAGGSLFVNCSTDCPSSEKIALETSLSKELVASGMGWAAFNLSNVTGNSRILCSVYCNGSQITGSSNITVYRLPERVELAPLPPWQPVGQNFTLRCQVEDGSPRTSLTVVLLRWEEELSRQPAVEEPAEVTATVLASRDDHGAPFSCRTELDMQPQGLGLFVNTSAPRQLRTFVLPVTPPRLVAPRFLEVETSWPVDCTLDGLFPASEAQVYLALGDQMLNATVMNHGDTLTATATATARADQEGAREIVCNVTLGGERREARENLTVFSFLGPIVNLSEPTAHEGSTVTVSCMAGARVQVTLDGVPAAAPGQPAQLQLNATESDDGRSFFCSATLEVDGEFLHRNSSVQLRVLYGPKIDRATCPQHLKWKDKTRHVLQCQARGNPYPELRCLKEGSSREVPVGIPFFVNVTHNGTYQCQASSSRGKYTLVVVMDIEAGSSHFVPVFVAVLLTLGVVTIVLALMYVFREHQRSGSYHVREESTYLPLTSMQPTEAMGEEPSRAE
UniProt P40692: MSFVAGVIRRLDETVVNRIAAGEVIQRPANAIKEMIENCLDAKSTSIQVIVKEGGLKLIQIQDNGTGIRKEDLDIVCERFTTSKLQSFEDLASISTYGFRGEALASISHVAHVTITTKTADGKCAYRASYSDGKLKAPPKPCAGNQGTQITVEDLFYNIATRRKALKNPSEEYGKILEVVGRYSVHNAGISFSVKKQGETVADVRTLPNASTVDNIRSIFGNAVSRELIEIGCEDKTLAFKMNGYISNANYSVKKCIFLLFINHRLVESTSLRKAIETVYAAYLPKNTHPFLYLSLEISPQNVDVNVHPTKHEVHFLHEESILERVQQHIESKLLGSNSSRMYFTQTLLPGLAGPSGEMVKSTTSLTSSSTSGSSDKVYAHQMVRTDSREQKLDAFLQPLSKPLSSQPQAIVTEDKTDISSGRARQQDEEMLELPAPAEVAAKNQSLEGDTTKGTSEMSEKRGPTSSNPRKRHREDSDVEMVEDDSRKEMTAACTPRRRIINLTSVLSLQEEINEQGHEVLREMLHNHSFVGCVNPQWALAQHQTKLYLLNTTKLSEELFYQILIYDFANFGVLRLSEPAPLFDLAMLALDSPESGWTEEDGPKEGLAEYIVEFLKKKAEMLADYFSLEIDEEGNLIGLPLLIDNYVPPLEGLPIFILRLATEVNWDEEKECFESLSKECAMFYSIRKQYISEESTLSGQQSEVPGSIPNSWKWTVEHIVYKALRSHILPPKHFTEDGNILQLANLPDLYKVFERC
UniProt P31751: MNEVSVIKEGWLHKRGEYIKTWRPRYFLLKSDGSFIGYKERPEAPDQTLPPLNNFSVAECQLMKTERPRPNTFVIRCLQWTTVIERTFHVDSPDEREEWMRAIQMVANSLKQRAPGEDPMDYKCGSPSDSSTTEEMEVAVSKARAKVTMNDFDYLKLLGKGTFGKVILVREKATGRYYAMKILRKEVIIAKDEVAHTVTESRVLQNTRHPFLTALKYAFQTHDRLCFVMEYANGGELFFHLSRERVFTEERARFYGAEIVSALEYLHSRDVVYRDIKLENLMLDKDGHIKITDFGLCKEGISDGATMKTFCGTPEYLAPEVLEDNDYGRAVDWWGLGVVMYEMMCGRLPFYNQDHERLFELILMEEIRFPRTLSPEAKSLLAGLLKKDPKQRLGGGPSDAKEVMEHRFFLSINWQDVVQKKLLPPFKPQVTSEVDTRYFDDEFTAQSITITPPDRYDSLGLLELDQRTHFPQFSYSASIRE
UniProt P31930: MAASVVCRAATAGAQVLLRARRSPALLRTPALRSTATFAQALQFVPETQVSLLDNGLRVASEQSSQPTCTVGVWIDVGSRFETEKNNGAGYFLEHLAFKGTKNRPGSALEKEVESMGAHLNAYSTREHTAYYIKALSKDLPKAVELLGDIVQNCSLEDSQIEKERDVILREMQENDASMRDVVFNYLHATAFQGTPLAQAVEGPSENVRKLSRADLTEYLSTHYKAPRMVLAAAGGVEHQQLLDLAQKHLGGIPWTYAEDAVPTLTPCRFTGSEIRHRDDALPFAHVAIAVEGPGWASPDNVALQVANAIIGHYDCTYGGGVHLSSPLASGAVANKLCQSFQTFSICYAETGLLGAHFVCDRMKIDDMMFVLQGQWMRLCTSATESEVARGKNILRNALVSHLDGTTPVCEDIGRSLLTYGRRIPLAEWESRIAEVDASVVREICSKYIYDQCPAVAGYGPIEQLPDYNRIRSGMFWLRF
UniProt P46459: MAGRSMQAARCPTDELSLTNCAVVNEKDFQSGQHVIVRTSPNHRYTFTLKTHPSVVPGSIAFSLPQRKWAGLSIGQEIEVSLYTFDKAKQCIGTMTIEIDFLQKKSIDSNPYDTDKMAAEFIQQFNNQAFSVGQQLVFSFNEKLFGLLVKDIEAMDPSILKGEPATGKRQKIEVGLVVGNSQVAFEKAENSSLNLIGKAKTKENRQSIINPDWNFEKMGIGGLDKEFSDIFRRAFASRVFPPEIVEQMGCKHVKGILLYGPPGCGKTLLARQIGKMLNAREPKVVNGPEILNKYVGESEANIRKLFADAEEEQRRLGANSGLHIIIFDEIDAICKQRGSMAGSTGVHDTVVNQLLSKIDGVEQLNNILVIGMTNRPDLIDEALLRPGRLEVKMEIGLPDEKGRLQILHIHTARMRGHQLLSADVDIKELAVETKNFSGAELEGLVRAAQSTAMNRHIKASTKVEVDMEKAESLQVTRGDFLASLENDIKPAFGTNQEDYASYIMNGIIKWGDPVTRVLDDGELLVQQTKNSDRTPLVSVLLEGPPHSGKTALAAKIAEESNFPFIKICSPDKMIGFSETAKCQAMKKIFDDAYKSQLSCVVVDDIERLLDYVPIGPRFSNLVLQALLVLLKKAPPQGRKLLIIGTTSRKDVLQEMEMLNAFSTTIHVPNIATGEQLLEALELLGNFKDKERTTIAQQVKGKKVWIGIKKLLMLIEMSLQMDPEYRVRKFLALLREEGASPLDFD
UniProt P28702: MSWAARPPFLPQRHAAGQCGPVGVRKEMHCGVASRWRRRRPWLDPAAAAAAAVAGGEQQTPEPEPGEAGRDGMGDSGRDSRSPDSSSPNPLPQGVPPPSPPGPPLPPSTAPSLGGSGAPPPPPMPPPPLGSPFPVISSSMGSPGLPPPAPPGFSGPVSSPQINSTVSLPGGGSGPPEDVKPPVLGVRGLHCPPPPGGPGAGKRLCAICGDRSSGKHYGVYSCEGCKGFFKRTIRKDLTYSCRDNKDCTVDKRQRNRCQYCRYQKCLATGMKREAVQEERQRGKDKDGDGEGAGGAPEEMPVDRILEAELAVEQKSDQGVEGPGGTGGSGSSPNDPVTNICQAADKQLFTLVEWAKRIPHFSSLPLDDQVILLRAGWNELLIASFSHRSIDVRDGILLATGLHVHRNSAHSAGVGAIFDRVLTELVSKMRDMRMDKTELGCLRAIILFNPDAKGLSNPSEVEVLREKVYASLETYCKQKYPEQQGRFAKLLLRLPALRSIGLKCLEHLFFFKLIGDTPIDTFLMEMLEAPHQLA
UniProt P41208: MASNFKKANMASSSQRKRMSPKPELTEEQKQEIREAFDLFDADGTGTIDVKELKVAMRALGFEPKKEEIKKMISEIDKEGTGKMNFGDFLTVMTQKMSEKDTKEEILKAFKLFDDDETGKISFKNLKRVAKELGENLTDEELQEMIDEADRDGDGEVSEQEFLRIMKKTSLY
UniProt P40938, whole entry: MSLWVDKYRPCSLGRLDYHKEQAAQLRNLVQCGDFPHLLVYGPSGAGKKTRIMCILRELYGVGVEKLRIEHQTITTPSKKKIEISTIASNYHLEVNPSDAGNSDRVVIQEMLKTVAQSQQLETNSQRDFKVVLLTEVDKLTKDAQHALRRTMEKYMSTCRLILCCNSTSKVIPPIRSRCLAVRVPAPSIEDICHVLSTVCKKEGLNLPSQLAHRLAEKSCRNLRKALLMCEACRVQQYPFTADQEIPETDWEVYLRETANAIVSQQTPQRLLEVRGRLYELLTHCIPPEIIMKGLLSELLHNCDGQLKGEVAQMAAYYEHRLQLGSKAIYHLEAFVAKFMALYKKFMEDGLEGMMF
UniProt P48147: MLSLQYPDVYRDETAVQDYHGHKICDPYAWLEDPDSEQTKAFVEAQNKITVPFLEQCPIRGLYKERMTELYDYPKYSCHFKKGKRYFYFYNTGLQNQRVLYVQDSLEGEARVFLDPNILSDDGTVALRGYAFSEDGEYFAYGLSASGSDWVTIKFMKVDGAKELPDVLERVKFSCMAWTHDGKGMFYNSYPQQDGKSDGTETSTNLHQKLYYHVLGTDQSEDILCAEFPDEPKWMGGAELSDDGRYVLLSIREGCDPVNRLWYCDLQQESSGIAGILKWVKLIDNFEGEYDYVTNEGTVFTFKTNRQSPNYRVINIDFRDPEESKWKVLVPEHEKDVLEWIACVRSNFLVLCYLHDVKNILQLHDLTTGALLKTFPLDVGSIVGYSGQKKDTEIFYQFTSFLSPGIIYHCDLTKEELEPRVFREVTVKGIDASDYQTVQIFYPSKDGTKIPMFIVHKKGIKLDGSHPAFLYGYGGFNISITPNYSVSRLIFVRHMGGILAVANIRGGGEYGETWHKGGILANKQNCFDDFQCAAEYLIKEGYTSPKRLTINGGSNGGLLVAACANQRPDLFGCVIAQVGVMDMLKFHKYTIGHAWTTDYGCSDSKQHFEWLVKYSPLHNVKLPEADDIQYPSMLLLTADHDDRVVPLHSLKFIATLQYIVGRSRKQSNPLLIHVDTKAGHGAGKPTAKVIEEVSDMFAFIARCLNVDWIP

Compound: Nc1nc2c(ncn2[C@@H]2O[C@H](COP(=O)(O)OP(=O)(O)OP(=O)(O)O)[C@@H](O)[C@H]2O)c(=O)[nH]1 [guanosine triphosphate]
Experiment: NP40-soluble protein abundance relative to vehicle (solubility fold change) (ratio); higher = more soluble protein in presence of GTP
Procedure, shortened: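 Crude Jurkat lysate, prepared by Dounce homogenisation, was exposed to eight concentrations from 0.1 to 10 mM for 10 min at room temperature and then 3 min at 37 °C. Solubilisation used 0.8% NP40 with benzonase for 60 min at 4 °C, followed by ultracentrifugation and TMT labelling of the supernatant for LC-MS/MS. After vsn normalisation of intensities, each value is the fold change against the detergent-processed vehicle within each replicate, across three independent experiments.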

| Target | NP40-soluble protein abundance (concentration: 0.1mM) | NP40-soluble protein abundance (concentration: 0.5mM) | NP40-soluble protein abundance (concentration: 1mM) | NP40-soluble protein abundance (concentration: 2mM) | NP40-soluble protein abundance (concentration: 4mM) | NP40-soluble protein abundance (concentration: 6mM) | NP40-soluble protein abundance (concentration: 8mM) | NP40-soluble protein abundance (concentration: 10mM) |
| --- | --- | --- | --- | --- | --- | --- | --- | --- |
| SRP14 (UniProt P37108) | 0.806 ± 0.041 | 0.819 ± 0.014 | 0.968 ± 0.081 | 0.948 ± 0.029 | 0.915 ± 0.051 | 0.965 ± 0.016 | 0.917 ± 0.037 | 1.06 ± 0.082 |
| UniProt P49321 and related entries | 0.859 ± 0.067 | 0.861 ± 0.08 | 0.926 ± 0.072 | 0.883 ± 0.11 | 0.857 ± 0.094 | 0.891 ± 0.096 | 0.866 ± 0.076 | 0.905 ± 0.082 |
| RECQL (UniProt P46063) | 1.05 ± 0.04 | 1.04 ± 0.028 | 0.9693 ± 0.0088 | 0.954 ± 0.036 | 0.951 ± 0.031 | 0.934 ± 0.012 | 0.937 ± 0.023 | 0.895 ± 0.047 |
| UniProt P36639 and related entries | 0.938 ± 0.039 | 0.975 ± 0.017 | 0.91 ± 0.033 | 0.908 ± 0.058 | 0.86 ± 0.047 | 0.861 ± 0.053 | 0.86 ± 0.084 | 0.809 ± 0.06 |
| UniProt P30049 | 0.898 ± 0.044 | 0.918 ± 0.059 | 1.02 ± 0.11 | 1.03 ± 0.1 | 0.967 ± 0.11 | 1.04 ± 0.096 | 0.995 ± 0.11 | 1.04 ± 0.15 |
| UniProt P34896 and related entries | 0.987 ± 0.043 | 1.01 ± 0.034 | 0.97 ± 0.015 | 0.967 ± 0.024 | 0.998 ± 0.01 | 0.936 ± 0.029 | 0.957 ± 0.012 | 0.954 ± 0.015 |
| UniProt P27540 and related entries | 0.978 ± 0.071 | 0.957 ± 0.12 | 0.957 ± 0.027 | 0.982 ± 0.11 | 1.02 ± 0.023 | 0.961 ± 0.055 | 0.961 ± 0.059 | 0.927 ± 0.027 |
| ICAM3 (UniProt P32942) | 0.953 ± 0.017 | 0.944 ± 0.029 | 0.973 ± 0.027 | 0.917 ± 0.073 | 0.911 ± 0.061 | 0.923 ± 0.051 | 0.923 ± 0.035 | 0.954 ± 0.038 |
| MRPL19 (UniProt P49406) | 1.11 ± 0.077 | 1.14 ± 0.19 | 1.23 ± 0.3 | 1.33 ± 0.37 | 1.35 ± 0.4 | 1.33 ± 0.36 | 1.34 ± 0.36 | 1.15 ± 0.29 |
| MLH1 (UniProt P40692) | 1.12 ± 0.11 | 1.19 ± 0.12 | 1.11 ± 0.11 | 1.14 ± 0.1 | 1.12 ± 0.13 | 1.13 ± 0.13 | 1.11 ± 0.1 | 1.14 ± 0.087 |
| AKT2 (UniProt P31751) | 1.07 ± 0.09 | 1.02 ± 0.099 | 0.913 ± 0.044 | 0.919 ± 0.12 | 0.945 ± 0.11 | 0.865 ± 0.082 | 0.882 ± 0.038 | 0.818 ± 0.091 |
| UQCRC1 (UniProt P31930) | 0.996 ± 0.032 | 1.03 ± 0.049 | 0.994 ± 0.05 | 0.994 ± 0.046 | 0.995 ± 0.082 | 0.982 ± 0.072 | 1 ± 0.081 | 0.977 ± 0.099 |
| CPOX (UniProt P36551) | 1.01 ± 0.031 | 1.01 ± 0.032 | 0.929 ± 0.062 | 0.917 ± 0.04 | 0.951 ± 0.034 | 0.911 ± 0.054 | 0.881 ± 0.034 | 0.876 ± 0.051 |
| UniProt P46459 and related entries | 1.05 ± 0.05 | 1.06 ± 0.061 | 1.04 ± 0.076 | 1.03 ± 0.069 | 1.02 ± 0.075 | 1.02 ± 0.083 | 0.998 ± 0.064 | 0.956 ± 0.037 |
| AKT1 (UniProt P31749) | 1.03 ± 0.025 | 0.998 ± 0.037 | 0.829 ± 0.022 | 0.847 ± 0.041 | 0.855 ± 0.044 | 0.822 ± 0.019 | 0.7972 ± 0.0021 | 0.767 ± 0.011 |
| UniProt P28702 and related entries | 1.02 ± 0.047 | 0.993 ± 0.045 | 0.992 ± 0.043 | 0.978 ± 0.013 | 0.987 ± 0.067 | 0.964 ± 0.063 | 0.971 ± 0.019 | 0.955 ± 0.049 |
| MAGEA9 (UniProt P43362) | 1.19 ± 0.096 | 1.04 ± 0.13 | 1.17 ± 0.048 | 0.971 ± 0.094 | 1.14 ± 0.14 | 1.07 ± 0.041 | 1.02 ± 0.22 | 1.03 ± 0.019 |
| CETN2 (UniProt P41208) | 0.769 ± 0.051 | 0.778 ± 0.013 | 0.963 ± 0.091 | 0.985 ± 0.045 | 0.959 ± 0.09 | 1.02 ± 0.044 | 0.929 ± 0.11 | 1.1 ± 0.1 |
| RFC3 (UniProt P40938) | 1.05 ± 0.035 | 1.13 ± 0.075 | 1.08 ± 0.075 | 1.16 ± 0.16 | 1.23 ± 0.14 | 1.21 ± 0.16 | 1.19 ± 0.068 | 1.2 ± 0.11 |
| PREP (UniProt P48147) | 1.04 ± 0.06 | 1.05 ± 0.071 | 0.942 ± 0.053 | 0.945 ± 0.073 | 0.925 ± 0.068 | 0.917 ± 0.048 | 0.874 ± 0.025 | 0.861 ± 0.072 |
| IARS (UniProt P41252) | 1.12 ± 0.16 | 1.23 ± 0.24 | 1.13 ± 0.26 | 1.27 ± 0.39 | 1.29 ± 0.33 | 1.27 ± 0.37 | 1.19 ± 0.28 | 1.11 ± 0.28 |

Another view of part of the listing above:
Target	NP40-soluble protein abundance (concentration: 0.1mM)	NP40-soluble protein abundance (concentration: 0.5mM)	NP40-soluble protein abundance (concentration: 1mM)	NP40-soluble protein abundance (concentration: 2mM)	NP40-soluble protein abundance (concentration: 4mM)	NP40-soluble protein abundance (concentration: 6mM)	NP40-soluble protein abundance (concentration: 8mM)	NP40-soluble protein abundance (concentration: 10mM)
RECQL (UniProt P46063)	1.05 ± 0.04	1.04 ± 0.028	0.9693 ± 0.0088	0.954 ± 0.036	0.951 ± 0.031	0.934 ± 0.012	0.937 ± 0.023	0.895 ± 0.047
MRPL19 (UniProt P49406)	1.11 ± 0.077	1.14 ± 0.19	1.23 ± 0.3	1.33 ± 0.37	1.35 ± 0.4	1.33 ± 0.36	1.34 ± 0.36	1.15 ± 0.29
CPOX (UniProt P36551)	1.01 ± 0.031	1.01 ± 0.032	0.929 ± 0.062	0.917 ± 0.04	0.951 ± 0.034	0.911 ± 0.054	0.881 ± 0.034	0.876 ± 0.051
UniProt P46459 and related entries	1.05 ± 0.05	1.06 ± 0.061	1.04 ± 0.076	1.03 ± 0.069	1.02 ± 0.075	1.02 ± 0.083	0.998 ± 0.064	0.956 ± 0.037
MAGEA9 (UniProt P43362)	1.19 ± 0.096	1.04 ± 0.13	1.17 ± 0.048	0.971 ± 0.094	1.14 ± 0.14	1.07 ± 0.041	1.02 ± 0.22	1.03 ± 0.019
RFC3 (UniProt P40938)	1.05 ± 0.035	1.13 ± 0.075	1.08 ± 0.075	1.16 ± 0.16	1.23 ± 0.14	1.21 ± 0.16	1.19 ± 0.068	1.2 ± 0.11
